According to doi:10.1101/517789:
Where two headings read alike, the source gives them in different places. No constants are given. Whether binding was seen depends on the method and setting. In cells and extracts the contact can be indirect. Binding can be weak; no strength is given. For some assays here: Sequences can lack the tags named with a protein.

Assays:
[1] = biological target: T1, 6His-tagged plakoglobin (UniProt P14923); test: co-IP
T1 sequence: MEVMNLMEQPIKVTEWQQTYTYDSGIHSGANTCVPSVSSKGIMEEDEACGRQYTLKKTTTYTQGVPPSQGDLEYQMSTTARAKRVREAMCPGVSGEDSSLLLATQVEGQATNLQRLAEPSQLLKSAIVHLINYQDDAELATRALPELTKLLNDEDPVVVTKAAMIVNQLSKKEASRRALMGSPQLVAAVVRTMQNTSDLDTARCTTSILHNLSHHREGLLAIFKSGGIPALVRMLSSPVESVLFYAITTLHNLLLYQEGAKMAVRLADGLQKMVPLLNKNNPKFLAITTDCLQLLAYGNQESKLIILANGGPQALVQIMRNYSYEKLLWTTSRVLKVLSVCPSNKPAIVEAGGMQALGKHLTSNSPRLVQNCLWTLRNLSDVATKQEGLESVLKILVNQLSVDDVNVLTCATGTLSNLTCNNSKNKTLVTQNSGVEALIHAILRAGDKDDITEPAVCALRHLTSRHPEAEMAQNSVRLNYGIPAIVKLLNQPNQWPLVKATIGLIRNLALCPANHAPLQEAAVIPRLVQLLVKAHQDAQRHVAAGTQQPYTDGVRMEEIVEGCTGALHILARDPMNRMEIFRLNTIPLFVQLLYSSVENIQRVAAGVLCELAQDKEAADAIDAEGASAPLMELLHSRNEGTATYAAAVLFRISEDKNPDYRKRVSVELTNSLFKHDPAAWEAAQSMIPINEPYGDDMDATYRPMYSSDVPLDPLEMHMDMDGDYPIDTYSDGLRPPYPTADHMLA

[2] = biological target: T2, plakoglobin (mouse (endogenous in skeletal muscle, heart, liver)) (UniProt Q02257); test: co-IP
T2 sequence: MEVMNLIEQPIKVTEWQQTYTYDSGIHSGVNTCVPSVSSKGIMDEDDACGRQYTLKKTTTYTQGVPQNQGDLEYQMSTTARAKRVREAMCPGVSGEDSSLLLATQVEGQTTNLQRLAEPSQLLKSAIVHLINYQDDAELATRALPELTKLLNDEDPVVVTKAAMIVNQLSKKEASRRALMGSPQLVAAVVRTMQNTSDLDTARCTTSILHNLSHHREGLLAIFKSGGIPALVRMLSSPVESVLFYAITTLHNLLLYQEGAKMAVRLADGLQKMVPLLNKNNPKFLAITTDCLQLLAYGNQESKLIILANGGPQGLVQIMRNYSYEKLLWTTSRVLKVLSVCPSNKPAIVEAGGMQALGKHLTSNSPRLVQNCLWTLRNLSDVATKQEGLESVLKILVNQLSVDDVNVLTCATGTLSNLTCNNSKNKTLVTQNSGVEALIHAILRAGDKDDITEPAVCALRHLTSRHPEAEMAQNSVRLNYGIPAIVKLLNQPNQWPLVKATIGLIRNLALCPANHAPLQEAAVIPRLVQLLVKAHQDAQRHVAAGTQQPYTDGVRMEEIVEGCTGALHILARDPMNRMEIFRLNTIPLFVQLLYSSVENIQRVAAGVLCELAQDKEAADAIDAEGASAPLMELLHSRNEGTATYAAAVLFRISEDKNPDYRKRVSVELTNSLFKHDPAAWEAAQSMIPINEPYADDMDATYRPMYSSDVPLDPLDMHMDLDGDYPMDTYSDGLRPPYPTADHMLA

[3] = biological target: T3, 6His-V5-plakoglobin (FL) (UniProt P14923); test: pull-down
T3 sequence: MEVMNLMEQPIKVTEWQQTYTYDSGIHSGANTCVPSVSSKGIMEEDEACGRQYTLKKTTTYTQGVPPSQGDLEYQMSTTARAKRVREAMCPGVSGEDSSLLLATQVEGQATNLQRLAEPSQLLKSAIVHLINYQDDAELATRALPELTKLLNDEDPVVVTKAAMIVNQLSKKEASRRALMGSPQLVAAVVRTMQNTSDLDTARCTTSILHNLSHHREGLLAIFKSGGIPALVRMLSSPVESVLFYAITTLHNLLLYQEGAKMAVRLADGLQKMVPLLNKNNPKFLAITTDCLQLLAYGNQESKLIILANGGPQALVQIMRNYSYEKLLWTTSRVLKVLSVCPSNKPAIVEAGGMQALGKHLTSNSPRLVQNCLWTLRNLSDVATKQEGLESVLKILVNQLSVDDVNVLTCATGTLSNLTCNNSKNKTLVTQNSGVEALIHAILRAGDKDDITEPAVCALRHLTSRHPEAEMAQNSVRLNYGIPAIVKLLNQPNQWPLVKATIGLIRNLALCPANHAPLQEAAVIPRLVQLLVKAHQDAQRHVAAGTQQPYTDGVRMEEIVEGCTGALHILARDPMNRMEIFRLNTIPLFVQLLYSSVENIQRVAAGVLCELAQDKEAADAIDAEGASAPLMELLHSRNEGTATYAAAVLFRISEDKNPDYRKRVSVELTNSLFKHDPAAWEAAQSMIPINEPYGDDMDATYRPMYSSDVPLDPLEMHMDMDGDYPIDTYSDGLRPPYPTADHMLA

[4] = biological target: T1, 6His-tagged plakoglobin; test: pull-down
[5] = biological target: T2, plakoglobin (mouse (endogenous in skeletal muscle, heart, liver)); test: co-IP; remark: listed apart in the source
[6] = biological target: T2, plakoglobin (mouse (endogenous in skeletal muscle, heart, liver)); test: co-IP; remark: listed apart in the source
[7] = biological target: T2, plakoglobin (mouse (endogenous in skeletal muscle, heart, liver)); test: co-IP; remark: listed apart in the source
[8] = biological target: 6His-V5-plakoglobin ΔC; test: pull-down
[9] = biological target: 6His-V5-plakoglobin ΔN; test: pull-down

Measured: binding

insulin receptor
not listed: [8] | [9]
binds: all other assays above

p85 regulatory subunit of PI3K (mouse (endogenous in skeletal muscle))
binds: [1] | [5]

B1: β-dystroglycan (protein, UniProt Q62165 652-893)
chain: SIVVEWTNNTLPLEPCPKEQIIGLSRRIADENGKPRPAFSNALEPDFKALSIAVTGSGSCRHLQFIPVAPPSPGSSAAPATEVPDRDPEKSSEDDVYLHTVIPAVVVAAILLIAGIIAMICYRKKRKGKLTLEDQATFIKKGVPIIFADELDDSKPPPSSSMPLILQEEKAPLPPPEYPNQSMPETTPLNQDTVGEYTPLRDEDPNAPPYQPPPPFTAPMEGKGSRPKNMTPYRSPPPYVPP
modifications: glycosylated form in the plakoglobin-containing fractions (sites not given)
binds: [8] | [9]
